The list shows a part of the results. These are further read-outs of the screen, such as a control signal, another cell line or another target. No call is given for them. The list favours compounds with an active or inconclusive main result. Words in brackets tell the shape of the fitted curve; partial curves, single points and poor fits give uncertain potencies.
Experiment: qHTS Assay for Lipid Storage Modulators in Drosophila S3 Cells;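 on cell number change: cells counted by Cell Tracker Red CMTPX staining in the red channel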
Conditions: BODIPY lipid droplet fluorescence, 18-24 h; for cell number change: measured here: cell count max response, cells fed with added oleic acid
Summary of the method: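 Drosophila S3 cells got compounds at several concentrations plus oleic acid (400 uM solution). Laser-scanning cytometry with 488 nm excitation read lipid droplets at 500-530 nm and cells at 575-640 nm. Percent activity was relative to 20 uM Triacsin C.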

[1] = measured here: lipid fluorescence (Fed channel) AC50, cells fed with added oleic acid
[2] = measured here: cell number channel AC50, cells fed with added oleic acid

SMILES | cell number change | AC50 [1] | AC50 [2]
COC(=O)c1cc(S(=O)(=O)Nc2c(C)cccc2C)cn1C | 16.2% | 0.731 µM [rising, full curve, poor fit] | 
CCCOc1ccc(C(=O)NNC(=S)NC(=O)CC)cc1 | -12.7% | 29.1 µM [falling, single point] | 
CC(=O)c1ccc(Nc2ccc(-c3ccccc3C)nn2)cc1 | 4.17% | 16.4 µM [falling, single point] | 
CSCC[C@H](NC(=O)N1CCn2c1nc1ccccc12)C(=O)N[C@@H](C(=O)O)c1ccccc1 | 24.3% | 29.1 µM [rising, single point] | 
COc1ccc(OCC(=O)N2CCc3c([nH]c4ccccc34)C2c2ccccn2)cc1 (stereo not given) | -9.27% |  | 
O=C(c1ccc(NS(=O)(=O)c2ccc3c(c2)OCCO3)cc1)N1CCCCC1 | -19.5% |  | 
CCOC(=O)/C(N=Nc1c(Br)cc(Br)cc1Br)=C(\C)O | 31.6% |  | 0.103 µM [rising, full curve]
CC(=O)Nc1ccc(NC(=O)c2ccco2)cc1 | -20.4% |  | 3.26 µM [falling, single point]
CCO[C@H]1OC(C(=O)NCc2nc3ccccc3[nH]2)=C[C@@H](C2CC2)[C@@H]1CCCO | -13.9% | 2.06 µM [rising, single point] | 
O=C(CSc1nnc(-c2ccccc2Cl)o1)N1CCCC1 | -0.794% | 29.1 µM [rising, single point] | 
Cn1ncc(Br)c1NC(=O)Nc1ccccc1 | -13.3% | 18.4 µM [rising, single point] | 
CSCCC(NC(=O)C1CCC(C)CC1)C(=O)NCc1ccco1 (stereo not given) | 0.486% | 2.31 µM [falling, partial curve, poor fit] | 2.06 µM [falling, partial curve]
COc1cccc(NC(=O)CSc2ccccn2)c1 | 14.9% |  | 0.82 µM [rising, full curve, poor fit]
O=C(O)c1cn(-c2ccc(F)c(F)c2)c2c(F)c(F)c(F)c(F)c2c1=O | -0.414% | 7.31 µM [falling, partial curve] | 
CCCCCNCC(=O)Nc1cccc(C(=O)Nc2cccc(C(F)(F)F)c2)c1 | -60.9% | 23.1 µM [falling, single point] | 29.1 µM [falling, single point]
CC(C(=O)N1CCc2ccccc2C1)N(c1ccccc1)S(C)(=O)=O (stereo not given) |  | 1.84 µM [falling, partial curve] | 
C=CCNC(=S)NNC(=O)c1ccco1 |  | 0.0116 µM [rising, full curve, poor fit] | 
CC(C)(C)NC(=O)C(c1ccc(F)cc1)N(Cc1cccs1)C(=O)c1ccc(CN2CCOCC2)o1 (stereo not given) | -2.63% | 6.51 µM [falling, single point] | 
CCc1nnc(NS(=O)(=O)c2ccc(NC(=S)NC(=O)/C=C/c3cccs3)cc2)s1 | 15.1% | 0.00411 µM [rising, full curve, poor fit] | 

Laid out differently: 2 of the compounds above.
SMILES,cell number change,AC50 [1],AC50 [2]
O=C(CSc1nnc(-c2ccccc2Cl)o1)N1CCCC1,-0.794%,"29.1 µM [rising, single point]",
Cn1ncc(Br)c1NC(=O)Nc1ccccc1,-13.3%,"18.4 µM [rising, single point]",

Additional compounds.

SMILES | cell number change | AC50 [1] | AC50 [2]
CCOC(=O)c1nn(-c2ccccc2)c(=O)cc1OCC(=O)Nc1ccccc1OCC |  | 0.731 µM [rising, full curve] | 
c1ccc(CCNc2ccnc3cc4ccccc4cc23)cc1 | -86.2% | 16.4 µM [falling, partial curve] | 20.6 µM [falling, partial curve]
CCOC(=O)N1CCN(c2c(NCCc3ccc(OCC)c(OCC)c3)c(=O)c2=O)CC1 |  | 6.51 µM [rising, single point] | 5.8 µM [rising, single point]
CCc1ccccc1NC(=O)N1CCc2ccccc2C1 | 15.7% | 4.61 µM [rising, partial curve, poor fit] | 
O=C(N=C1SC2CS(=O)(=O)CC2N1c1ccc(Cl)cc1Cl)C1CCCO1 (stereo not given) | -11.3% | 0.651 µM [falling, full curve] | 
COC(=O)CCc1c(C)c(C#N)c2nc3ccccc3n2c1N1CCCC1 | 115% | 2.31 µM [rising, partial curve] | 3.26 µM [rising, full curve]
O=C(O)c1ccc2c(c1)C(=O)N(Cc1ccccc1)C2=O | 24.4% | 0.13 µM [falling, full curve, poor fit] | 
O=C(c1cc(COc2cccc3cnccc23)on1)N1CCC(c2ccccc2Cl)C1 (stereo not given) | -35.3% | 29.1 µM [falling, single point] | 18.4 µM [falling, partial curve]
Cc1cccc(C(=O)NC2C(=O)NNC2c2ccc(Cl)cc2)c1 (stereo not given) | 10% | 0.651 µM [falling, full curve] | 0.651 µM [falling, full curve]
COc1ccc(/C=C(\C#N)C(=O)NCCc2ccccc2)cc1OCc1ccccc1 | -83.3% |  | 2.06 µM [falling, partial curve]
O=c1cc(-c2ccccc2)cc(-c2ccccc2)n1CCCO | 21.8% | 13 µM [rising, partial curve, poor fit] | 
CCC(Sc1nc(C)cc(=O)[nH]1)C(=O)Nc1sc2c(c1C#N)CCCC2 (stereo not given) | -19.8% |  | 
C=CCSc1nc2sc(-c3ccccc3)cc2c(=O)n1N | -26.3% | 29.1 µM [falling, single point] | 
COc1ccc(CCCc2nnc(SCC(=O)Nc3ccc(C)c(C)c3)o2)cc1 | 72.6% |  | 13 µM [rising, partial curve]
COc1cc(/C=C(\C#N)c2ccccn2)ccc1OCC(=O)Nc1ccc(Br)cc1 | -20.4% |  | 
COc1ccc([N+](=O)[O-])cc1NS(=O)(=O)c1cccc(C(=O)O)c1 | -43.3% | 6.51 µM [falling, partial curve] | 8.2 µM [falling, partial curve, poor fit]
COC(=O)C1CCN(C(=O)c2cc3ccccc3oc2=O)CC1 | -10.5% |  | 
COc1ccc(C(=O)c2ccc(Br)cc2)c2ccccc12 | -18.5% | 0.00461 µM [falling, full curve, poor fit] | 
Cc1cc(C(=O)NCc2ccco2)c2ccccc2n1 | 63.3% |  | 23.1 µM [rising, partial curve, poor fit]

Reference: PubChem BioAssay AID2685 (National Center for Advancing Translational Sciences (NCATS), 2010)
